Measured values published in publication PMC5982823, “The Pseudokinase Domain of Saccharomyces cerevisiae Tra1 Is Required for Nuclear Localization and Incorporation into the SAGA and NuA4 Complexes” (G3: Genes|Genomes|Genetics, 2018).

By UniProt entry, the sequences of proteins in these tests, tags left out.
UniProt P38811: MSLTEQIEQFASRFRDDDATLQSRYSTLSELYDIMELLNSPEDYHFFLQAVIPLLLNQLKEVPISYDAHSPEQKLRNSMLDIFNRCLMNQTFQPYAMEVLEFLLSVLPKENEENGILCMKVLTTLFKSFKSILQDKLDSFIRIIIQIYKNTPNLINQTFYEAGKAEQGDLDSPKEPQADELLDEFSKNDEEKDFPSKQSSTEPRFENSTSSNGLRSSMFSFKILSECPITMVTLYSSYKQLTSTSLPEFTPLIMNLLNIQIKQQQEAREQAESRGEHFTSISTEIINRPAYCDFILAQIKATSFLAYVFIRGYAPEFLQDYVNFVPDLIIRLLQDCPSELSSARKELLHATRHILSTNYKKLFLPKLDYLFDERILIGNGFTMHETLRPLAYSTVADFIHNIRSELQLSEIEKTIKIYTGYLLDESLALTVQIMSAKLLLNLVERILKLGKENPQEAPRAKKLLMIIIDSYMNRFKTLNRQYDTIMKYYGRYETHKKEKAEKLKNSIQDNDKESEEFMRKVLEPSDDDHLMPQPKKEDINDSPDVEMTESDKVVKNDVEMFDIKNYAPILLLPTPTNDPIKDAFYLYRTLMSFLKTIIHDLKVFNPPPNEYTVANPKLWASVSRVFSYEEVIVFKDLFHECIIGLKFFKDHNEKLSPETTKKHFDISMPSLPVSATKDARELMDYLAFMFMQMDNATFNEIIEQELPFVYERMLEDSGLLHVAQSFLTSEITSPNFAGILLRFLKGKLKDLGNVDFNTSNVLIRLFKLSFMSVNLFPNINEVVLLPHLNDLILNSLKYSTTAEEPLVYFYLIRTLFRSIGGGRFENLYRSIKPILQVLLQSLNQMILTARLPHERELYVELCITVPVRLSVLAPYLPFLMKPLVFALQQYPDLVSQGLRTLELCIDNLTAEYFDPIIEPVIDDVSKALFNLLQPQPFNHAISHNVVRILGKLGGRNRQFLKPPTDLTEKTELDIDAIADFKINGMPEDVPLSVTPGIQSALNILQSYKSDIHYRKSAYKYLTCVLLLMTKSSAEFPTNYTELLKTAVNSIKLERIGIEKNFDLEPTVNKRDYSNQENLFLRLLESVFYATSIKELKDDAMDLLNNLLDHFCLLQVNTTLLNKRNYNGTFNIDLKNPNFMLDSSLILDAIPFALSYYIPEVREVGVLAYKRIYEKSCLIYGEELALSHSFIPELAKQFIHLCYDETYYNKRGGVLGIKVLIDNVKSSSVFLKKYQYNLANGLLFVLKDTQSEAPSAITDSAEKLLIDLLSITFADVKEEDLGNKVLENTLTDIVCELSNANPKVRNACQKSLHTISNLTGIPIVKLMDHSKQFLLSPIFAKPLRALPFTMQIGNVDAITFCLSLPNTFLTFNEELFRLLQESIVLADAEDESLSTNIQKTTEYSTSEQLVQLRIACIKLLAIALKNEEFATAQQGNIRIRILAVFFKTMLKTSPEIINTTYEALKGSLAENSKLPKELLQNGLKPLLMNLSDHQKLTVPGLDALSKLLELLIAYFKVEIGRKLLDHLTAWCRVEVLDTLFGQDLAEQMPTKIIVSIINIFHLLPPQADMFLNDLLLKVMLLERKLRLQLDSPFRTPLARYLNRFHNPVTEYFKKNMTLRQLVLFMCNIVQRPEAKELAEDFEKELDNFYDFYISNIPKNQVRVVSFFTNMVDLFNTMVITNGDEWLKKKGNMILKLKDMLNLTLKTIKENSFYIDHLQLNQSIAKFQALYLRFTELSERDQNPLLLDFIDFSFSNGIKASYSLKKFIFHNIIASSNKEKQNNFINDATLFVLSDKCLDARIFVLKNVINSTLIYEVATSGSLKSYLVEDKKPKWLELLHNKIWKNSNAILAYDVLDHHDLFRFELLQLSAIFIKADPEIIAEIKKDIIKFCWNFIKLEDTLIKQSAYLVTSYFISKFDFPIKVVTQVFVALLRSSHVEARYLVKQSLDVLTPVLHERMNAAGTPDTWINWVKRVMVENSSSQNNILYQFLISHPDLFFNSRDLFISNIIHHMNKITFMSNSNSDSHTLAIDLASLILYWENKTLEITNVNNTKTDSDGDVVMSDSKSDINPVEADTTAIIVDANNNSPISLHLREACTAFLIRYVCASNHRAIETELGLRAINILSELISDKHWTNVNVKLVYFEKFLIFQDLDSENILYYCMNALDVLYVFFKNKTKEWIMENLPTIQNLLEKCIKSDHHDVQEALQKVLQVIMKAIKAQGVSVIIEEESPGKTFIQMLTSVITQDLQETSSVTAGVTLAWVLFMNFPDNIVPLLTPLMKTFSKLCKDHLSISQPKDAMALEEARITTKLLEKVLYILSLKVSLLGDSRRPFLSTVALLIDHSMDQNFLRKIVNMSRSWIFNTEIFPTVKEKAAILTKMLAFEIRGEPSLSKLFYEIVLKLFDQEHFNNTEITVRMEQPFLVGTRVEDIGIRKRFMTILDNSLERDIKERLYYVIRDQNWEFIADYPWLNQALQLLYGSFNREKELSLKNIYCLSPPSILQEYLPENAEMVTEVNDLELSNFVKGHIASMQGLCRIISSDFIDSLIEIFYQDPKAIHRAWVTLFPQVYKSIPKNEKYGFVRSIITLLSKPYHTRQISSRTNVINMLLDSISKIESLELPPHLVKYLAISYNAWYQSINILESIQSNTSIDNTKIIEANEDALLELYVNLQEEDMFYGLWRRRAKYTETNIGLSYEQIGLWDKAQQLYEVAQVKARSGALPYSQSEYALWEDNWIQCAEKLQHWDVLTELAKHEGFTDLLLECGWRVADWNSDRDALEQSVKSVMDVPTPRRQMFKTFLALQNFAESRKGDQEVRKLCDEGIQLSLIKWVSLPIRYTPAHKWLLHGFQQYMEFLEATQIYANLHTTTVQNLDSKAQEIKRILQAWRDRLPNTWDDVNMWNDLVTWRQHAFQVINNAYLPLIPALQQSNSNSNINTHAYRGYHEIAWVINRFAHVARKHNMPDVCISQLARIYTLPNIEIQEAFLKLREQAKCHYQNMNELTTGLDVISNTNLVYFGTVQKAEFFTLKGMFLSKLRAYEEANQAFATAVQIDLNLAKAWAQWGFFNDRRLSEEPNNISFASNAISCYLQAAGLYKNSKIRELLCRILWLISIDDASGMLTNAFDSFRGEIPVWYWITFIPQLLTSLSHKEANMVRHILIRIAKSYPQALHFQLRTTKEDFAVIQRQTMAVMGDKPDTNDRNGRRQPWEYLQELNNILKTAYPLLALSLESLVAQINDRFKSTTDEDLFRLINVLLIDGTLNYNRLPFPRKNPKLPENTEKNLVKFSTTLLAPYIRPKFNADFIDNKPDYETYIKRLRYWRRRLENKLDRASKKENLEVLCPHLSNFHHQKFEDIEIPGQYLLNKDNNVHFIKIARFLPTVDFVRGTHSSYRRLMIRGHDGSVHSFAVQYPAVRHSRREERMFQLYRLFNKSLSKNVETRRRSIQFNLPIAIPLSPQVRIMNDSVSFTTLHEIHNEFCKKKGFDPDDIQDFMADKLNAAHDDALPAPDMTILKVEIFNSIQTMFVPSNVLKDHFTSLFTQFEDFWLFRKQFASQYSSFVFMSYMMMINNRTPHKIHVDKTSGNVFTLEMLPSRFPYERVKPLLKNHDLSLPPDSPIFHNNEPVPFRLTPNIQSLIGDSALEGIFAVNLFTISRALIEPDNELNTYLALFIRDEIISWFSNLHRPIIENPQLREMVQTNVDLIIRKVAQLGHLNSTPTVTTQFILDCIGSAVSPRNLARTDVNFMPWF
UniProt P35177: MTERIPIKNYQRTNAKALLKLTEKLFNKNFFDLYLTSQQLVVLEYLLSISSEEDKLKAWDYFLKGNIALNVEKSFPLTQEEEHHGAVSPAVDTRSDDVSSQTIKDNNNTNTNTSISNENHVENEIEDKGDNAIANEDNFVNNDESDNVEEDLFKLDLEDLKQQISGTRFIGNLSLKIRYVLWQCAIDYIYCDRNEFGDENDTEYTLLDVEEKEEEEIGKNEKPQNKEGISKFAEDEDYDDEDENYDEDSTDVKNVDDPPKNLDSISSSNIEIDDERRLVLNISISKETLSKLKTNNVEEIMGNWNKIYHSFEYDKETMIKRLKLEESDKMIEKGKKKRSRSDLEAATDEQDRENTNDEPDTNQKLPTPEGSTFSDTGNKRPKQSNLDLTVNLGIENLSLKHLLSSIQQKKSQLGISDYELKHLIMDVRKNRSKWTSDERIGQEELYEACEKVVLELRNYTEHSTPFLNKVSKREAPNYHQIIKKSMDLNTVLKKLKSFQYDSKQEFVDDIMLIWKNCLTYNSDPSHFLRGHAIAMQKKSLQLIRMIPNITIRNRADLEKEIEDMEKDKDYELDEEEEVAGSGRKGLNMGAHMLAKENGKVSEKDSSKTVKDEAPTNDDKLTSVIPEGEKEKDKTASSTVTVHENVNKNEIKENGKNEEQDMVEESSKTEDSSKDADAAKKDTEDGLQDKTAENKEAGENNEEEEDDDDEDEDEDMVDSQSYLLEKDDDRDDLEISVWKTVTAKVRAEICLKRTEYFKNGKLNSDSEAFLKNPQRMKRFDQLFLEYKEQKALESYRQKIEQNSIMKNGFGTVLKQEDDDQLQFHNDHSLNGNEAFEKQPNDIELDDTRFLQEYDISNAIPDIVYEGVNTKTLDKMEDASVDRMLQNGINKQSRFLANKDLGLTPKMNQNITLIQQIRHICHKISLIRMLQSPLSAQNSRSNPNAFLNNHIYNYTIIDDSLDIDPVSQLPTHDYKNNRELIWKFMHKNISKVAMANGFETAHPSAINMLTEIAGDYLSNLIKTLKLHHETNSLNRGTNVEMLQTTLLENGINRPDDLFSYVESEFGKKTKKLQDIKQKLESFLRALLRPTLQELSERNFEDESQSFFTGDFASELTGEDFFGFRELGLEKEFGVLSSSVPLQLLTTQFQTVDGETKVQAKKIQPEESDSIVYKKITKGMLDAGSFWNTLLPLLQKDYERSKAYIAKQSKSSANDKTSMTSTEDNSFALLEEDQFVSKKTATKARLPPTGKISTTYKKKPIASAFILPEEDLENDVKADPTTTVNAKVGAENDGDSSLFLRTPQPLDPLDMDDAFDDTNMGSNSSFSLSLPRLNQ

T1: TAP-tagged Ada2 (S. cerevisiae, UniProt Q02336 1-434)
T1 construct: Ada2, SAGA component, S. cerevisiae; TAP-tagged ADA2; Held on IgG beads, released with TEV protease, then held on calmodulin beads, so part of the TAP tag is cut off during the purification; also called TAP-Ada2; TAP-ADA2; source: S. cerevisiae strain with TAP-tagged ADA2 (bought: Open Biosystems YSC1178-202230655; crossed with CY6582 for the tra1 Q3 strain CY7042), in lysate of cells ground in …
T1 sequence (looked up): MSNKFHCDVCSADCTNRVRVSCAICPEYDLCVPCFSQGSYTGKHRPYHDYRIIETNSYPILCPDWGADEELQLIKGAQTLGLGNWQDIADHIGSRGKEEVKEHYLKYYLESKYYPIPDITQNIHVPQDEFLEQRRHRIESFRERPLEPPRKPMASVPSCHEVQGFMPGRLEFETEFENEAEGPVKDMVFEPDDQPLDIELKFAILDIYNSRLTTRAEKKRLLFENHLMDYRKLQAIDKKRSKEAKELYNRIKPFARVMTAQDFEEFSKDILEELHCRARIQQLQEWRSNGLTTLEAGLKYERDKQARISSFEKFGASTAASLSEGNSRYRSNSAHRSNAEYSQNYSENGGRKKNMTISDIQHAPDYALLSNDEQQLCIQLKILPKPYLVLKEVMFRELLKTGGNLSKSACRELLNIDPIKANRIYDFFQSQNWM

T2: TAP-tagged Epl1 (S. cerevisiae) (UniProt P43572)
T2 sequence: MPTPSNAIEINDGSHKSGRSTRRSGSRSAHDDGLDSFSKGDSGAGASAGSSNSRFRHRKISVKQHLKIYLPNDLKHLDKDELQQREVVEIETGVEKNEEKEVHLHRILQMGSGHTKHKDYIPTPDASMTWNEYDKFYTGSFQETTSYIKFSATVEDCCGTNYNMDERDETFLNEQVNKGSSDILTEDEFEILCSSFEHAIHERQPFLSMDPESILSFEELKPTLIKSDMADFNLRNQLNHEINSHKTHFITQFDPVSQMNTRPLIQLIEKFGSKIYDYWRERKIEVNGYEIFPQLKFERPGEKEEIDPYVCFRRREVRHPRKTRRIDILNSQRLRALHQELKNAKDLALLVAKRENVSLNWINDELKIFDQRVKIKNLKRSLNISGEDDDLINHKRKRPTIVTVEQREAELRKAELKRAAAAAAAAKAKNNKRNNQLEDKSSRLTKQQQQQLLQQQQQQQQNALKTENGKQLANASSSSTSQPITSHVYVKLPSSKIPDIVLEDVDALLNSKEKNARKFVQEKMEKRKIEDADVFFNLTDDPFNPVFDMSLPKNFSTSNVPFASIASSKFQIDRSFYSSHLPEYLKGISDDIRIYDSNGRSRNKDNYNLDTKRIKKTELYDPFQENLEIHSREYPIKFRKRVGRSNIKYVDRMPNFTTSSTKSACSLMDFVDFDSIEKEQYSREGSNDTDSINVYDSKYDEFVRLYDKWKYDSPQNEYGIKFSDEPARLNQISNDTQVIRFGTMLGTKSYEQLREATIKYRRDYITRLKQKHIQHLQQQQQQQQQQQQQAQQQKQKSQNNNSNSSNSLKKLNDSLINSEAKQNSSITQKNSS


Legend:
TAP-tagged Ada2 = target: T1, TAP-tagged Ada2; assay: affinity purification with mass spectrometry; tandem affinity purification of TAP-tagged Epl1 or Ada2 from lysates of TRA1 or tra1 Q3 strains (260 mg or 170 mg protein): IgG beads 2 h at 4°, IPP150 (10 mM Tris-HCl pH 8.0, 150 mM NaCl), TEV cleavage, calmodulin beads, EGTA elution; SDS-PAGE, Coomassie Brilliant Blue; bands identified by MALDI mass spectrometry or predicted from mass; band intensity by ImageJ
[1] = target: T2, TAP-tagged Epl1 (S. cerevisiae); assay: as above

| binding (TAP-tagged Ada2) | binding [1] | Molecule |
| --- | --- | --- |
| binds |  | Tra1 (wild type) (from UniProt P38811 1-3744) |
| binds |  | Full-length Spt7 (Spt7^SAGA) (from UniProt P35177 1-1332) |
|  | binds | Swc4 (protein, UniProt P53201 1-476) MSSSDIFDVLNIKQKSRSPTNGQVSVPSSSAANRPKPQVTGMQRELFNLLGENQPPVVIKSGNNFKEKMLSTSKPSPWSFVEFKANNSVTLRHWVKGSKELIGDTPKESPYSKFNQHLSIPSFTKEEYEAFMNENEGTQKSVESEKNHNENFTNEKKDESKNSWSFEEIEYLFNLCKKYDLRWFLIFDRYSYNNSRTLEDLKEKFYYTCRNYFKASDPSNPLLSSLNFSAEKEIERKKYLQRLLSRSAAEIAEEEALVVESKKFEMAAKRTLAERESLLRLLDSPHSDQTITQYLTSQGMSQLYNALLADKTRKRKHDLNIPENPWMKQQQQFAQHRQLQQLNVKKSEVKENLSPKKTKRQRQEMQTALKRKSESAYAEQLLKDFNSDERKALGVITHGEKLSPGVYLRSTKLSTFKPALQNKILAILQELSLPSRPVMPSFDVMERQEELLKKINTLIDLKKHVDKYEAGMSITK |

Results are given in words; binding and its absence hold for the method and conditions named. Binding seen in cells or lysates may run through a third protein. These calls come from enrichment with a bait or labelling near it, and not all partners need be listed. Tags and fused reporters may be left off the sequences shown.
